Results are given in words; binding and its absence hold for the method and conditions named. Some binding calls cover weakened binding; strength is not graded here. Tags and fused reporters may be left off the sequences shown. Values belong to the binder of their own block, whether it stands above or below them.
Columns and labels:
Assay in all cases: two-hybrid; split-ubiquitin membrane-based yeast two-hybrid (MbYTH) in S. cerevisiae NMY51; bait fused to Cub-TF, prey to NubG; 100 colonies of each combination spotted on selective medium with 3-AT, 30°C, three days, grown spots counted; called 'in vitro' by the paper
[1] = target: T1, CESA4 (cellulose synthase, secondary cell wall), MbYTH fusion (Arabidopsis thaliana) (UniProt Q84JA6)
T1 sequence: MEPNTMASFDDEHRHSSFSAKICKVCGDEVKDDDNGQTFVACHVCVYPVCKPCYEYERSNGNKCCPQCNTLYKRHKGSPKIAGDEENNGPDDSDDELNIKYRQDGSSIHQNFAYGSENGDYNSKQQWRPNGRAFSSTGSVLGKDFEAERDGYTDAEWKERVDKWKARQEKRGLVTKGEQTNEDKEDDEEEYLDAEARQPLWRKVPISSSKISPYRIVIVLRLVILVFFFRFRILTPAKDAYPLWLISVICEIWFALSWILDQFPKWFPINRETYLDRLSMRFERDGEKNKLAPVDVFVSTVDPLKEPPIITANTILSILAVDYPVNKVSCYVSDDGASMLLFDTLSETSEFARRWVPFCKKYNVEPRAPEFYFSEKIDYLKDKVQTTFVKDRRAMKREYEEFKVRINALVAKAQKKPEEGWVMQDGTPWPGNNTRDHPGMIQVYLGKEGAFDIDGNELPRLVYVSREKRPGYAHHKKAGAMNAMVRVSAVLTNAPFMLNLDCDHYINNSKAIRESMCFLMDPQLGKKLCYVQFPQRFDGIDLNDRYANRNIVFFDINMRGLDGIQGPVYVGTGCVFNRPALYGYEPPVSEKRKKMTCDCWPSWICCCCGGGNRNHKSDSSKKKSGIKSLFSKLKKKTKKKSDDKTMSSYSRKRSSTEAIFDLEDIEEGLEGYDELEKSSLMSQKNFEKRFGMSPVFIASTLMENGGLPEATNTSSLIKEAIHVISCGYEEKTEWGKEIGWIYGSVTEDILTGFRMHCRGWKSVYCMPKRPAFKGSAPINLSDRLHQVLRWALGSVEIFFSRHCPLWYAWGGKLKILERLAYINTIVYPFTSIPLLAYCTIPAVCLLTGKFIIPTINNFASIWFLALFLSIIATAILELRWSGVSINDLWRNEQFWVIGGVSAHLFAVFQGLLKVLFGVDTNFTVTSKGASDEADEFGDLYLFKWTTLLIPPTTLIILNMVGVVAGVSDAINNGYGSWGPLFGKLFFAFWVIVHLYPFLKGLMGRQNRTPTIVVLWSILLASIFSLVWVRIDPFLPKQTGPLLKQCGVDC

[2] = target: T2, CESA8 (cellulose synthase, secondary cell wall), MbYTH fusion (Arabidopsis thaliana) (UniProt Q8LPK5)
T2 sequence: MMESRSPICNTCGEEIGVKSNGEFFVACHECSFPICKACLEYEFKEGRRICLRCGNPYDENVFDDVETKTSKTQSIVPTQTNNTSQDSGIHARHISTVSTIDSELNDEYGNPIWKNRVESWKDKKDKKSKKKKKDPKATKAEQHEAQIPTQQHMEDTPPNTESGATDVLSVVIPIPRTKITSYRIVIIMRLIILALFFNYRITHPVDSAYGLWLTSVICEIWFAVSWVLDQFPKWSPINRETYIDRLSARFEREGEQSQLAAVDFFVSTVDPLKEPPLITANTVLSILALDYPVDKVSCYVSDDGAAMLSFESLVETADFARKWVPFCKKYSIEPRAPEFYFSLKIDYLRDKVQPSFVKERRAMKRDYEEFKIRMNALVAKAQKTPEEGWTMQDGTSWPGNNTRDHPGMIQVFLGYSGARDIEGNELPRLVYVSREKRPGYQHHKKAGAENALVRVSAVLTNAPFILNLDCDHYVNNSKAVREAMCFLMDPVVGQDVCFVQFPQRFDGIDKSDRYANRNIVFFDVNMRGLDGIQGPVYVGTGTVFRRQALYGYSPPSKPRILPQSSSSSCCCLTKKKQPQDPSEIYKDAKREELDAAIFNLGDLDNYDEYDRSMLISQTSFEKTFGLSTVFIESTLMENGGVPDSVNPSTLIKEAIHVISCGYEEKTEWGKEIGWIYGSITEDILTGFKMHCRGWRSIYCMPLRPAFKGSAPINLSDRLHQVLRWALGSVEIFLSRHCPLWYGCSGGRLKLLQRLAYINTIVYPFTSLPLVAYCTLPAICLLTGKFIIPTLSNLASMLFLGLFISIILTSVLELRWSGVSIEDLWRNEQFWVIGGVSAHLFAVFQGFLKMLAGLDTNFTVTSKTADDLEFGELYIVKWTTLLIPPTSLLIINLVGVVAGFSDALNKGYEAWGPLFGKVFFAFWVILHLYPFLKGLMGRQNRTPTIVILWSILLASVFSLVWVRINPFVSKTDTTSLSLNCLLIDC

[3] = target: T3, KOR1C, transmembrane domain plus the C-terminal part of KOR1 (AA 70 to 621), MbYTH fusion (Arabidopsis thaliana) (UniProt Q38890)
T3 sequence: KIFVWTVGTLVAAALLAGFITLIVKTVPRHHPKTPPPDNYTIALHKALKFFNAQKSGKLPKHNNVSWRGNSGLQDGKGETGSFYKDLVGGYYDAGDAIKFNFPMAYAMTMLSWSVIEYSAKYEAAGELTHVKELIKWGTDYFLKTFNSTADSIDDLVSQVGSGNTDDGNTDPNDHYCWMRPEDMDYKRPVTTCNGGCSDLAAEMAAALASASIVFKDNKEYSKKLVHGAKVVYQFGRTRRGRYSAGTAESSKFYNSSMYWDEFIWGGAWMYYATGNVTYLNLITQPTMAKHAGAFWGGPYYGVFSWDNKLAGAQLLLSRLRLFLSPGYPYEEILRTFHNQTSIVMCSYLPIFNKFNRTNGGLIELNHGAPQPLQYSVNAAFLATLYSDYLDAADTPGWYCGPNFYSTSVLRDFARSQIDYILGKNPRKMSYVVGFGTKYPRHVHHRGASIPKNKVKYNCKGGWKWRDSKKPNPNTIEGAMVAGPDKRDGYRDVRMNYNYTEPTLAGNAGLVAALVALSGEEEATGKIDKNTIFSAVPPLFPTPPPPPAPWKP

binding [1]: binds
binding [2]: binds
B2: KORRIGAN1 (KOR1), complete protein (AA 1 to 621), MbYTH fusion (protein, UniProt Q38890 1-621)
chain: MYGRDPWGGPLEINTADSATDDDRSRNLNDLDRAALSRPLDETQQSWLLGPTEQKKKKYVDLGCIIVSRKIFVWTVGTLVAAALLAGFITLIVKTVPRHHPKTPPPDNYTIALHKALKFFNAQKSGKLPKHNNVSWRGNSGLQDGKGETGSFYKDLVGGYYDAGDAIKFNFPMAYAMTMLSWSVIEYSAKYEAAGELTHVKELIKWGTDYFLKTFNSTADSIDDLVSQVGSGNTDDGNTDPNDHYCWMRPEDMDYKRPVTTCNGGCSDLAAEMAAALASASIVFKDNKEYSKKLVHGAKVVYQFGRTRRGRYSAGTAESSKFYNSSMYWDEFIWGGAWMYYATGNVTYLNLITQPTMAKHAGAFWGGPYYGVFSWDNKLAGAQLLLSRLRLFLSPGYPYEEILRTFHNQTSIVMCSYLPIFNKFNRTNGGLIELNHGAPQPLQYSVNAAFLATLYSDYLDAADTPGWYCGPNFYSTSVLRDFARSQIDYILGKNPRKMSYVVGFGTKYPRHVHHRGASIPKNKVKYNCKGGWKWRDSKKPNPNTIEGAMVAGPDKRDGYRDVRMNYNYTEPTLAGNAGLVAALVALSGEEEATGKIDKNTIFSAVPPLFPTPPPPPAPWKP

binding [1]: binds
binding [2]: binds
binding [3]: binds
B4: KOR1TMD, only the transmembrane domain of KOR1 (AA 70 to 94), MbYTH fusion (domain or fragment, UniProt Q38890 70-94)
chain: KIFVWTVGTLVAAALLAGFITLIVK

Continued, binder first:

B1: KOR1C, transmembrane domain plus the C-terminal part of KOR1 (AA 70 to 621), MbYTH fusion (domain or fragment, UniProt Q38890 70-621)
chain: T3 sequence
binding [1]: binds
binding [2]: binds
binding [3]: binds

B3: KOR1N, N-terminal part of KOR1 with the transmembrane domain (AA 1 to 94), MbYTH fusion (domain or fragment, UniProt Q38890 1-94)
chain: MYGRDPWGGPLEINTADSATDDDRSRNLNDLDRAALSRPLDETQQSWLLGPTEQKKKKYVDLGCIIVSRKIFVWTVGTLVAAALLAGFITLIVK
binding [1]: binds
binding [2]: binds
binding [3]: binds weakly

B5: KOR1NOTMD, KOR1 without the transmembrane domain (AA 1 to 69+95 to 621), MbYTH prey (domain or fragment, UniProt Q38890)
chain: MYGRDPWGGPLEINTADSATDDDRSRNLNDLDRAALSRPLDETQQSWLLGPTEQKKKKYVDLGCIIVSRTVPRHHPKTPPPDNYTIALHKALKFFNAQKSGKLPKHNNVSWRGNSGLQDGKGETGSFYKDLVGGYYDAGDAIKFNFPMAYAMTMLSWSVIEYSAKYEAAGELTHVKELIKWGTDYFLKTFNSTADSIDDLVSQVGSGNTDDGNTDPNDHYCWMRPEDMDYKRPVTTCNGGCSDLAAEMAAALASASIVFKDNKEYSKKLVHGAKVVYQFGRTRRGRYSAGTAESSKFYNSSMYWDEFIWGGAWMYYATGNVTYLNLITQPTMAKHAGAFWGGPYYGVFSWDNKLAGAQLLLSRLRLFLSPGYPYEEILRTFHNQTSIVMCSYLPIFNKFNRTNGGLIELNHGAPQPLQYSVNAAFLATLYSDYLDAADTPGWYCGPNFYSTSVLRDFARSQIDYILGKNPRKMSYVVGFGTKYPRHVHHRGASIPKNKVKYNCKGGWKWRDSKKPNPNTIEGAMVAGPDKRDGYRDVRMNYNYTEPTLAGNAGLVAALVALSGEEEATGKIDKNTIFSAVPPLFPTPPPPPAPWKP
binding [1]: no binding
binding [2]: no binding
binding [3]: no binding

Reference: article PMC4226561
